Reference: article doi:10.1101/2020.12.17.422596

Amino acid sequences for entries named in this document (tags omitted).
UniProt Q92609: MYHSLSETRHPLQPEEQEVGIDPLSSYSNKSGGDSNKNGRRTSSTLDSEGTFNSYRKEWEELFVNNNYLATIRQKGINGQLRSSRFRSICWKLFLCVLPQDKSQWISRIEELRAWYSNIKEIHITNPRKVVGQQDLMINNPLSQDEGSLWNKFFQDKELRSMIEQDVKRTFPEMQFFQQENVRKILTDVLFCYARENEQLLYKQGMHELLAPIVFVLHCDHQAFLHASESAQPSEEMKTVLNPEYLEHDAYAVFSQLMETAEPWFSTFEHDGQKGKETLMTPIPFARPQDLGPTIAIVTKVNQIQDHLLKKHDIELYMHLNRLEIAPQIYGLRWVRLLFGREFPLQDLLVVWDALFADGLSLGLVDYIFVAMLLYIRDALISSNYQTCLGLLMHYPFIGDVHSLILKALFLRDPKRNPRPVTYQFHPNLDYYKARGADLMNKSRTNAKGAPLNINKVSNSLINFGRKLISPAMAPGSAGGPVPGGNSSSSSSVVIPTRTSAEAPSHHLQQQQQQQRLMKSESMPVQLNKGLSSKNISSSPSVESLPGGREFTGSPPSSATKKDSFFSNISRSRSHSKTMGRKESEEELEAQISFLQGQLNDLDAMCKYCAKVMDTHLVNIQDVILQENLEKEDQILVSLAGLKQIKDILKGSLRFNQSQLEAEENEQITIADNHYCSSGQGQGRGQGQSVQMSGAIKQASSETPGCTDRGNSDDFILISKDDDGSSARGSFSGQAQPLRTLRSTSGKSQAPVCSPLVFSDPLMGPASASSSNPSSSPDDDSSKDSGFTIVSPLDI

T1: Myc-APEX2-Atg4B (human) (UniProt Q9Y4P1)
T1 sequence: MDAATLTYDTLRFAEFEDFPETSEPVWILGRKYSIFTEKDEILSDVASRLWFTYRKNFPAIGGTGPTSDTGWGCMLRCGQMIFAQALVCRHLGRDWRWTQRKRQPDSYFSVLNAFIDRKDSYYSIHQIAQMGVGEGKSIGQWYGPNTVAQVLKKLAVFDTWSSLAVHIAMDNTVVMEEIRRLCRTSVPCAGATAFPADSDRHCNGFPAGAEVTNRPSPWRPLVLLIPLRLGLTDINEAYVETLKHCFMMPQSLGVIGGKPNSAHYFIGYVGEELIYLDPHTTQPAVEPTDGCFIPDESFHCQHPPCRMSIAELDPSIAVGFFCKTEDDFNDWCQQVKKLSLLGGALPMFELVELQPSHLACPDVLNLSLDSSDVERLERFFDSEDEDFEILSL

T2: Myc-APEX2-Atg4A (human) (UniProt Q8WYN0)
T2 sequence: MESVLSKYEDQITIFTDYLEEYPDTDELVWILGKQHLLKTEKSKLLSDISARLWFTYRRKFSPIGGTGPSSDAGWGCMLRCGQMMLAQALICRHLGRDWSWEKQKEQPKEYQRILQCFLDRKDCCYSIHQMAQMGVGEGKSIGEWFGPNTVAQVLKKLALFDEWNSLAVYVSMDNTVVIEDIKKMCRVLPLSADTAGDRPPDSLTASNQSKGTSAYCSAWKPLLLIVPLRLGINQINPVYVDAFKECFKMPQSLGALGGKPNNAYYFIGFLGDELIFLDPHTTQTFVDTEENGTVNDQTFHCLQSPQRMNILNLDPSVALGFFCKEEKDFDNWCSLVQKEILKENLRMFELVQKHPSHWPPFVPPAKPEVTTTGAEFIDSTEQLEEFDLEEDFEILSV


Legend:
Assay in all cases: proximity labelling
Myc-APEX2-Atg4B (human) = biological target: T1, Myc-APEX2-Atg4B (human)
Myc-APEX2-Atg4A (human) = biological target: T2, Myc-APEX2-Atg4A (human)
Myc-APEX2-Atg4D (human) = Myc-APEX2-Atg4D (human) (UniProt Q86TL0)

| binding (Myc-APEX2-Atg4B (human)) | binding (Myc-APEX2-Atg4A (human)) | binding (Myc-APEX2-Atg4D (human)) | Molecule |
| --- | --- | --- | --- |
| binds | binds | – | TBC1D5 (from UniProt Q92609 1-795) |
| – | binds | – | FYCO1 (protein, UniProt Q9BQS8 1-1478) MASTNAESQLQRIIRDLQDAVTELSKEFQEAGEPITDDSTSLHKFSYKLEYLLQFDQKEKATLLGNKKDYWDYFCACLAKVKGANDGIRFVKSISELRTSLGKGRAFIRYSLVHQRLADTLQQCFMNTKVTSDWYYARSPFLQPKLSSDIVGQLYELTEVQFDLASRGFDLDAAWPTFARRTLTTGSSAYLWKPPSRSSSMSSLVSSYLQTQEMVSNFDLNSPLNNEALEGFDEMRLELDQLEVREKQLRERMQQLDRENQELRAAVSQQGEQLQTERERGRTAAEDNVRLTCLVAELQKQWEVTQATQNTVKELQTCLQGLELGAAEKEEDYHTALRRLESMLQPLAQELEATRDSLDKKNQHLASFPGWLAMAQQKADTASDTKGRQEPIPSDAAQEMQELGEKLQALERERTKVEEVNRQQSAQLEQLVKELQLKEDARASLERLVKEMAPLQEELSGKGQEADQLWRRLQELLAHTSSWEEELAELRREKKQQQEEKELLEQEVRSLTRQLQFLETQLAQVSQHVSDLEEQKKQLIQDKDHLSQQVGMLERLAGPPGPELPVAGEKNEALVPVNSSLQEAWGKPEEEQRGLQEAQLDDTKVQEGSQEEELRQANRELEKELQNVVGRNQLLEGKLQALQADYQALQQRESAIQGSLASLEAEQASIRHLGDQMEASLLAVRKAKEAMKAQMAEKEAILQSKEGECQQLREEVEQCQQLAEARHRELRALESQCQQQTQLIEVLTAEKGQQGVGPPTDNEARELAAQLALSQAQLEVHQGEVQRLQAQVVDLQAKMRAALDDQDKVQSQLSMAEAVLREHKTLVQQLKEQNEALNRAHVQELLQCSEREGALQEERADEAQQREEELRALQEELSQAKCSSEEAQLEHAELQEQLHRANTDTAELGIQVCALTVEKERVEEALACAVQELQDAKEAASREREGLERQVAGLQQEKESLQEKLKAAKAAAGSLPGLQAQLAQAEQRAQSLQEAAHQELNTLKFQLSAEIMDYQSRLKNAGEECKSLRGQLEEQGRQLQAAEEAVEKLKATQADMGEKLSCTSNHLAECQAAMLRKDKEGAALREDLERTQKELEKATTKIQEYYNKLCQEVTNRERNDQKMLADLDDLNRTKKYLEERLIELLRDKDALWQKSDALEFQQKLSAEERWLGDTEANHCLDCKREFSWMVRRHHCRICGRIFCYYCCNNYVLSKHGGKKERCCRACFQKLSEGPGSPDSSGSGTSQGEPSPALSPASPGPQATGGQGANTDYRPPDDAVFDIITDEELCQIQESGSSLPETPTETDSLDPNAAEQDTTSTSLTPEDTEDMPVGQDSEICLLKSGELMIKVPLTVDEIASFGEGSRELFVRSSTYSLIPITVAEAGLTISWVFSSDPKSISFSVVFQEAEDTPLDQCKVLIPTTRCNSHKENIQGQLKVRTPGIYMLIFDNTFSRFVSKKVFYHLTVDRPVIYDGSDFL |
| – | binds | binds | WDR11 (protein, UniProt Q9BZH6 1-1224) MLPYTVNFKVSARTLTGALNAHNKAAVDWGWQGLIAYGCHSLVVVIDSITAQTLQVLEKHKADVVKVKWARENYHHNIGSPYCLRLASADVNGKIIVWDVAAGVAQCEIQEHAKPIQDVQWLWNQDASRDLLLAIHPPNYIVLWNADTGTKLWKKSYADNILSFSFDPFDPSHLTLLTSEGIVFISDFSPSKPPSGPGKKVYISSPHSSPAHNKLATATGAKKALNKVKILITQEKPSAEFITLNDCLQLAYLPSKRNHMLLLYPREILILDLEVNQTVGVIAIERTGVPFLQVIPCFQRDGLFCLHENGCITLRVRRSYNNIFTTSNEEPDPDPVQELTYDLRSQCDAIRVTKTVRPFSMVCCPVNENAAALVVSDGRVMIWELKSAVCNRNSRNSSSGVSPLYSPVSFCGIPVGVLQNKLPDLSLDNMIGQSAIAGEEHPRGSILREVHLKFLLTGLLSGLPAPQFAIRMCPPLTTKNIKMYQPLLAVGTSNGSVLVYHLTSGLLHKELSIHSCEVKGIEWTSLTSFLSFATSTPNNMGLVRNELQLVDLPTGRSIAFRGERGNDESAIEMIKVSHLKQYLAVVFRDKPLELWDVRTCTLLREMSKNFPTITALEWSPSHNLKSLRKKQLATREAMARQTVVSDTELSIVESSVISLLQEAESKSELSQNISAREHFVFTDIDGQVYHLTVEGNSVKDSARIPPDGSMGSITCIAWKGDTLVLGDMDGNLNFWDLKGRVSRGIPTHRSWVRKIRFAPGKGNQKLIAMYNDGAEVWDTKEVQMVSSLRSGRNVTFRILDVDWCTSDKVILASDDGCIRVLEMSMKSACFRMDEQELTEPVWCPYLLVPRASLALKAFLLHQPWNGQYSLDISHVDYPENEEIKNLLQEQLNSLSNDIKKLLLDPEFTLLQRCLLVSRLYGDESELHFWTVAAHYLHSLSQEKSASTTAPKEAAPRDKLSNPLDICYDVLCENAYFQKFQLERVNLQEVKRSTYDHTRKCTDQLLLLGQTDRAVQLLLETSADNQHYYCDSLKACLVTTVTSSGPSQSTIKLVATNMIANGKLAEGVQLLCLIDKAADACRYLQTYGEWNRAAWLAKVRLNPEECADVLRRWVDHLCSPQVNQKSKALLVLLSLGCFFSVAETLHSMRYFDRAALFVEACLKYGAFEVTEDTEKLITAIYADYARSLKNLGFKQGAVLFASKAGAAGKDLLNELESPKEEPIEE |
| binds | binds | – | ARFIP2 (protein, UniProt P53365 1-341) MTDGILGKAATMEIPIHGNGEARQLPEDDGLEQDLQQVMVSGPNLNETSIVSGGYGGSGDGLIPTGSGRHPSHSTTPSGPGDEVARGIAGEKFDIVKKWGINTYKCTKQLLSERFGRGSRTVDLELELQIELLRETKRKYESVLQLGRALTAHLYSLLQTQHALGDAFADLSQKSPELQEEFGYNAETQKLLCKNGETLLGAVNFFVSSINTLVTKTMEDTLMTVKQYEAARLEYDAYRTDLEELSLGPRDAGTRGRLESAQATFQAHRDKYEKLRGDVAIKLKFLEENKIKVMHKQLLLFHNAVSAYFAGNQKQLEQTLQQFNIKLRPPGAEKPSWLEEQ |

No constants are given. Whether binding was seen depends on the method and setting. In cells and extracts the contact can be indirect. These calls come from enrichment with a bait or labelling near it, and not all partners need be listed. For some of these results: Tags and fused reporters may be left off the sequences shown.
